Drawing on publication PMC9161857, this text covers binding for one substance.

The chains behind the UniProt entries cited, without tags or fusion partners.
UniProt Q13619: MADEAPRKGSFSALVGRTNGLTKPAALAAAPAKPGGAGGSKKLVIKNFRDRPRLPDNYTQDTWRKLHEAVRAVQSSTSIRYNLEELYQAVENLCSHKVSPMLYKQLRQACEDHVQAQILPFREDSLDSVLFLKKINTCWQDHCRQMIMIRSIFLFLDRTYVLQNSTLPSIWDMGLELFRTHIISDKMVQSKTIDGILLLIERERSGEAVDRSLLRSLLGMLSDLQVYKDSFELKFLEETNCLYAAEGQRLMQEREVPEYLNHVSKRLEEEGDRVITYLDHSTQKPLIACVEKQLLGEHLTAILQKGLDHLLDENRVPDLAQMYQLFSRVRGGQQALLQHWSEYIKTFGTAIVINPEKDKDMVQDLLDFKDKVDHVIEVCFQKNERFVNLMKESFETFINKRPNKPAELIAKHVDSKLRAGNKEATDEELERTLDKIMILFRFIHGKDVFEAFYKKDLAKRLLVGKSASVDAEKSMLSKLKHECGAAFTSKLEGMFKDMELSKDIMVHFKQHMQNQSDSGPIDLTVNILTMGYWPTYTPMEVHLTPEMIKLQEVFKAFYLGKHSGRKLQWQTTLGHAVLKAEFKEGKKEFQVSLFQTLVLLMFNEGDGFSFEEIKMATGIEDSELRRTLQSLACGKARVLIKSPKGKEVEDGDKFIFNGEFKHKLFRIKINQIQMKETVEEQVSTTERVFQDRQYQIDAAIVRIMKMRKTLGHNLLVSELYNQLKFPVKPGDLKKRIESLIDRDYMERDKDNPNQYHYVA
UniProt O14744: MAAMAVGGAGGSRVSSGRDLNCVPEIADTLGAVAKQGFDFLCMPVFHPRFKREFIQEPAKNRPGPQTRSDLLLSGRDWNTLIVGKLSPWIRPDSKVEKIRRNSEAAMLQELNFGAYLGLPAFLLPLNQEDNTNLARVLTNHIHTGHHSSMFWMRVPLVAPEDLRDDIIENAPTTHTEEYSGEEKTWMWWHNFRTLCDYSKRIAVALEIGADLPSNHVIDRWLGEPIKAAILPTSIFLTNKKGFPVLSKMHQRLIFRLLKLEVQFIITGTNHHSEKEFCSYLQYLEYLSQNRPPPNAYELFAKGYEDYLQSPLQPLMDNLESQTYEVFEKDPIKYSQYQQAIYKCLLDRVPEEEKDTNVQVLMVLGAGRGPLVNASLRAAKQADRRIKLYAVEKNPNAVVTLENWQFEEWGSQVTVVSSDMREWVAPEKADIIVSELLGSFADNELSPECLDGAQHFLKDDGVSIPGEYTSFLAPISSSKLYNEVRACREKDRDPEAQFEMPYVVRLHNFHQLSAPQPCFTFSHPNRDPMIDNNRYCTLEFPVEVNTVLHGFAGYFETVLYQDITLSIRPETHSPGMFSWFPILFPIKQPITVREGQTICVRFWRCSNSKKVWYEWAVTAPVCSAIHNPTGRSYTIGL

These are yes or no findings as the source states them, for the method shown. In cells and extracts the contact can be indirect. Some binding calls cover weakened binding; strength is not graded here.

The target of this assay is Cullin 4A (human (endogenous in C666-1)) (UniProt Q13619). Put plainly: co-IP; cell lysate (500 µg per IP) with 2.5 µg CUL4A or PRMT5 antibody and protein A + G magnetic beads, room temperature, 2 h; western blotting.

As to “protein arginine methyltransferase 5 (from UniProt O14744 1-637)”, the binding entry is “binds”.
